Test results published in PMC4216001.
No constants are given. Whether binding was seen depends on the method and setting. In cells and extracts the contact can be indirect. Some results given as binding are weak or reduced against the parent protein; the word gives no strength.

The chains behind the UniProt entries cited, without tags or fusion partners.
UniProt Q60631: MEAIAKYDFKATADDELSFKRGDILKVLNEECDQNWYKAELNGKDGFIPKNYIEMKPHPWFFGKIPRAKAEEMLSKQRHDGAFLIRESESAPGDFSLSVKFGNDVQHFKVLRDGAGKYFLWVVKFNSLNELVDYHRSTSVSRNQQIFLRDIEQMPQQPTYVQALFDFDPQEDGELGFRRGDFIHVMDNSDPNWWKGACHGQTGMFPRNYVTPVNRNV

Target: Grb2 (mouse (endogenous in primary mouse mammary epithelial cells)) (UniProt Q60631)
Assay: co-IP; anti-Grb2 immunoprecipitation (protein G Dynabeads) from post-nuclear NP-40 lysates (1% NP-40, 150 mM NaCl, 50 mM Tris-HCl, 10 mM EDTA, pH 8.0) of primary mouse mammary epithelial cells, control (+/df) and dab2 knockout (df/df), stimulated with TGF-beta (10 ng/ml) for 0, 5, 15, 30 and 90 min; blots for Sos, Dab2 and Grb2

binding: binds
Substance: Sos (from UniProt Q62245 1-1319)
